Data from the primary screen of doi:10.1371/journal.pone.0140310, rounded.

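Human melanoma cells were exposed to two drugs together for 72 h in 1,536-well plates and read by automated microscopy after fixing and staining. Each value is the count of nuclei relative to DMSO-treated wells, in %, so that 100 equals the control. Concentrations were fixed for each drug; these are the lower of two levels, a fifth of the higher. These are primary screening values without error estimates.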 This is part of the screen, not chosen by result. An entry leaves out what has no value listed here. A dash means that no value is listed here.

Drugs:
indole-3-carbinol: OCc1c[nH]c2ccccc12 at 0.8 µM
sorafenib: CNC(=O)c1cc(Oc2ccc(NC(=O)Nc3ccc(Cl)c(C(F)(F)F)c3)cc2)ccn1 at 0.4 µM
CP-690550: C[C@@H]1CCN(C(=O)CC#N)C[C@@H]1N(C)c1ncnc2[nH]ccc12 at 1 µM
SNS-314: O=C(Nc1cccc(Cl)c1)Nc1ncc(CCNc2ncnc3ccsc23)s1 at 0.0008 µM
SU6656: CN(C)S(=O)(=O)c1ccc2c(c1)/C(=C/c1cc3c([nH]1)CCCC3)C(=O)N2 at 0.4 µM
dovitinib: CN1CCN(c2ccc3nc(-c4c(N)c5c(F)cccc5[nH]c4=O)[nH]c3c2)CC1 at 0.1 µM
lapatinib: CS(=O)(=O)CCNCc1ccc(-c2ccc3ncnc(Nc4ccc(OCc5cccc(F)c5)c(Cl)c4)c3c2)o1 at 0.8 µM
veliparib: C[C@]1(c2nc3c(C(N)=O)cccc3[nH]2)CCCN1 at 1.4 µM
YM155: COCC[n+]1c2c(n(Cc3cnccn3)c1C)C(=O)c1ccccc1C2=O at 0.0004 µM
STA-4783: CN(NC(=O)CC(=O)NN(C)C(=S)c1ccccc1)C(=S)c1ccccc1 at 0.006 µM
tipifarnib: Cn1cncc1[C@@](N)(c1ccc(Cl)cc1)c1ccc2c(c1)c(-c1cccc(Cl)c1)cc(=O)n2C at 0.01 µM

Pair: YM155 + tipifarnib
A101D: 80.4
A2058: 53.7
C32: 93.5
A375: 71.4

Pair: tipifarnib + lapatinib
A101D: 84.1
A2058: 87.5
C32: 105
A375: 94.3

Pair: YM155 + STA-4783
A101D: 85.8
A2058: 39.0
C32: 76.6
A375: 17.6

Pair: veliparib + tipifarnib
A101D: 70.9
A2058: 78.8
C32: 90.0
A375: 62.1

Pair: lapatinib + STA-4783
A101D: 78.7
A2058: 54.5
C32: 76.6
A375: 30.4

Pair: indole-3-carbinol + tipifarnib
A101D: 85.1
A2058: 90.0
C32: 98.3
A375: 86.8

Pair: sorafenib + STA-4783
A101D: 83.6
A2058: 90.0
C32: 107
A375: 54.8

Pair: indole-3-carbinol + dovitinib
A101D: 91.9
A2058: 98.3
C32: 96.1
COLO 792: 103
A375: 96.2

Pair: SU6656 + YM155
A101D: 80.0
A2058: 39.7
C32: 73.4
A375: 86.7

Pair: SU6656 + sorafenib
A101D: 88.0
A2058: 105
C32: 94.7
A375: 82.3

Pair: veliparib + SU6656
A101D: 81.5
A2058: 81.4
C32: 93.5
A375: 95.8

Pair: YM155 + CP-690550
A101D: 93.8
A2058: 64.6
C32: 95.2
A375: 76.9

Pair: dovitinib + SU6656
A101D: 81.7
A2058: 87.3
C32: 79.1
A375: 88.8

Pair: indole-3-carbinol + STA-4783
A101D: 85.5
A2058: 87.6
C32: 92.4
A375: 29.4

Pair: lapatinib + sorafenib
A101D: 113
A2058: 86.2
C32: 104
COLO 792: 116
A375: 86.5

Pair: indole-3-carbinol + SNS-314
A101D: 104
A2058: 108
C32: 98.6
A375: 130

Pair: SNS-314 + lapatinib
A101D: 107
A2058: 111
C32: 98.7
A375: 91.5

Pair: lapatinib + indole-3-carbinol
A101D: 91.7
A2058: 88.3
C32: 104
COLO 792: 76.8
A375: 99.2

Pair: CP-690550 + sorafenib
A101D: 99.8
A2058: 94.4
C32: 79.3
A375: 95.3

Pair: dovitinib + tipifarnib
A101D: 83.7
A2058: 67.0
C32: 76.3
A375: 72.9

Pair: dovitinib + STA-4783
A101D: 81.0
A2058: 81.4
C32: 77.5
A375: 25.7

Pair: sorafenib + SNS-314
A101D: 89.1
A2058: 101
C32: 77.0
A375: 94.4

Pair: YM155 + SNS-314
A101D: 97.6
A2058: 45.8
C32: 119
A375: 77.1

Pair: dovitinib + SNS-314
A101D: 102
A2058: 107
C32: 96.0
A375: 83.2

Pair: dovitinib + CP-690550
A101D: 93.1
A2058: 85.9
C32: 95.6
A375: 71.6

Pair: veliparib + STA-4783
A101D: 72.1
A2058: 61.2
C32: 67.5
A375: 20.6

Pair: SNS-314 + veliparib
A101D: 79.3
A2058: 95.3
C32: 94.1
A375: 83.1

Pair: CP-690550 + veliparib
A101D: 85.8
A2058: 85.7
C32: 95.7
A375: 83.0

Pair: lapatinib + SU6656
A101D: 87.7
A2058: 97.1
C32: 95.3
A375: 103

3 of the entries, repeated:

| Pair | A101D | A2058 | C32 | COLO 792 | A375 |
|---|---|---|---|---|---|
| SU6656 + YM155 | 80.0 | 39.7 | 73.4 | - | 86.7 |
| tipifarnib + lapatinib | 84.1 | 87.5 | 105 | - | 94.3 |
| YM155 + SNS-314 | 97.6 | 45.8 | 119 | - | 77.1 |